Chains of the proteins cited; added tags and fusions are not shown.
UniProt Q62167: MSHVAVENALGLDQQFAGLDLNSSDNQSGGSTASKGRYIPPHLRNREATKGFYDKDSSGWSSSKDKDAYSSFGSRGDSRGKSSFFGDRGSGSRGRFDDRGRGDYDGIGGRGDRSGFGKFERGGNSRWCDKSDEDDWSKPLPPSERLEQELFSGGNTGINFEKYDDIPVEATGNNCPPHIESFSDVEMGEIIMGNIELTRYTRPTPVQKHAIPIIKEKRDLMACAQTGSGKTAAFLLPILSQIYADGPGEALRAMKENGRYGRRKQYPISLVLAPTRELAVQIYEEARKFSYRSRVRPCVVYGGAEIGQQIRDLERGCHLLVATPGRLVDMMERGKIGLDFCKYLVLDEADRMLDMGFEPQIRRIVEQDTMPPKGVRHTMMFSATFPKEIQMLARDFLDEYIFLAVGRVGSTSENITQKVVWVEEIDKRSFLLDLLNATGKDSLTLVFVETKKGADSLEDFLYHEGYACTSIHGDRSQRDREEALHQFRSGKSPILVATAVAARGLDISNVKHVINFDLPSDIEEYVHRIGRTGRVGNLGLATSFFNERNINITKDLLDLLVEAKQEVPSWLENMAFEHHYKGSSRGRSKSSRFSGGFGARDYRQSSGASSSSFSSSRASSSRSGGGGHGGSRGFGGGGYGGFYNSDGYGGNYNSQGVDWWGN
UniProt Q9EPL8: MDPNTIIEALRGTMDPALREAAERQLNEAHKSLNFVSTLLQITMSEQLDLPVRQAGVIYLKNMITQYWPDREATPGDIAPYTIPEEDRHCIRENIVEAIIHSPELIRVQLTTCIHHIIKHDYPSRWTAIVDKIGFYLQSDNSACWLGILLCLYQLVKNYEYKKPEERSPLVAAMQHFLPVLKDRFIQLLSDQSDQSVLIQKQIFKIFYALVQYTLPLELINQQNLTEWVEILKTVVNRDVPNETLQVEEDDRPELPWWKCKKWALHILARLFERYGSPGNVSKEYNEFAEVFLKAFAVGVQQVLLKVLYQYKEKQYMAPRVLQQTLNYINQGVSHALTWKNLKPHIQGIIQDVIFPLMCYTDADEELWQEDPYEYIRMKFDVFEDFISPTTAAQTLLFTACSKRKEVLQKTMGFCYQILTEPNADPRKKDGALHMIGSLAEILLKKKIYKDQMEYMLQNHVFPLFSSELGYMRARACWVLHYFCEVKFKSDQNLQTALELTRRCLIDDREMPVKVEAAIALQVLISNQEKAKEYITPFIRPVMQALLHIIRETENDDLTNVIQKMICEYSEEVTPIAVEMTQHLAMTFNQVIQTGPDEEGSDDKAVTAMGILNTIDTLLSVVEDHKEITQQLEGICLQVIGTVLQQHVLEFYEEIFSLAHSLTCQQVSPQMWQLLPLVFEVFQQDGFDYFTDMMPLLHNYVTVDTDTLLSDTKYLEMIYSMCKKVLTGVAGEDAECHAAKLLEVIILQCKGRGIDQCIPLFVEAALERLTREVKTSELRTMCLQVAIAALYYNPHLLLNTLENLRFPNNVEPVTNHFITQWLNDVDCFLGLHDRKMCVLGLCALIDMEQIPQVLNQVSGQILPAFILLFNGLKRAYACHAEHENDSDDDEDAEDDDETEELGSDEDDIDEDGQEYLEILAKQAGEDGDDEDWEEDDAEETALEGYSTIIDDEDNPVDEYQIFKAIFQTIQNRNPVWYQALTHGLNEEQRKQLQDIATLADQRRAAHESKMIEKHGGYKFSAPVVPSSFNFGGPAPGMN
UniProt Q9CR16: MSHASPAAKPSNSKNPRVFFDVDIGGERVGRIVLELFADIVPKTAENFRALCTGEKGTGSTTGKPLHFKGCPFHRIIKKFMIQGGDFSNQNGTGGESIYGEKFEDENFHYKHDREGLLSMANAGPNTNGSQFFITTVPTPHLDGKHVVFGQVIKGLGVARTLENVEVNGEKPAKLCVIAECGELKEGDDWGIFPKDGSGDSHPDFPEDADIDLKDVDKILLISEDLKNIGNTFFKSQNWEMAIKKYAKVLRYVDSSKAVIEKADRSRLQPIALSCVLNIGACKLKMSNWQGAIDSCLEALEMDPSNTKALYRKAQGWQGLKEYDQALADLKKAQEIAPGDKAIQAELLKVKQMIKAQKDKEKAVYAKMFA

In PMC11811133:

B1: TRIM56 (tripartite motif protein 56), endogenous in N2a cells (protein, UniProt Q80VI1 1-734)
chain: MNSKVSSPTLLEALSSDFLACKICLEQLHTPKTLPCLHTYCQDCLAQLDIGGQVRCPECREIVPVPAEGVAAFKTNFFVNGLLDLVKARAPGDVHSGKPTCALCPLVGGKSSGGPATARCLDCADDLCQACADGHRCSRQTHKHRVVDLVGYRAGWYDEEARERQASQCPQHPGEALCFLCQPCSQLLCKDCRLGPHIDHPCLPLAEAVRSRKPGLEELLAGVDSNLVELEATRVAEKEALALLREQAASVGTQVEEAAERILKSLLAQKQEVLGQLRALVEAAEEATRERLTKIERQEQVAKAAAAFARRVLSLGLEAEILSLEGAITQRLRQLQDAPWTSGPTRCVLPQLELHPGLEDKNCHLLRLIFEEPKQSPKDSGKGGAGTQGGDEAQGQGDDRTKIGKQGGAQPLTPKEGKDQNPQEDDGVFIERGNRPNKKKKCKGRGKSVSREPSPILRPNLEGSGLLPRPVFSWSFPTRMPGDKRSPRITGLCPYGPQEILVADEQNRVLKRFSLNGDYKGTVQVPEGCSPCSVAALQNAVAFSANAKLYLVSPDGEIQWRRSLSLTQSSHAVAAMPCGDRVAVSVAGHVEVYKKDGSLATRFIPGGKASRGQRALVFLTTSPQGNFVGSDWQQNSVVFCDGLGQVIWEYKGPGLHGCQPGSVSVDKKGYIFLTLREVNKVVILDPKGSLLGDFLTAYHGLEKPRVTTMVDGKYLVVSLSNGTIHVFRVRFPDS
B2: ZC3HAV1, endogenous in N2a cells (protein, UniProt Q3UPF5 1-996)
chain: MTDPEVFCFITKILCAHGGRMTLEELLGEISLPEAQLYELLKAAGPDRFVLLETGDQAGITRSVVATTRARVCRRKYCQRPCDSLHLCKLNLLGRCHYAQSQRNLCKYSHDVLSEQNFQVLKNHELSGLNQEELAVLLVQSDPFFMPEICKSYKGEGRKQICGQPQPCERLHICEHFTRGNCSYLNCLRSHNLMDRKVLAIMREHGLSSDVVQNIQDICNNKHTRRNPPSMRAPHPHRRGGAHRDRSKSRDRFHHNSLEVLSTVSPLGSGPPSPDVTGCKDPLEDVSADVTQKFKYLGTQDRAQLSSVSSKAAGVRGPSQMRASQEFLEDGDPDGLFSRNRSDSSTSRTSAAGFPLVAAQRNEAGAMKMGMPSGHHVEVKGKNEDIDRVPFLNSYIDGVTMEEATVSGILGKRATDNGLEEMILSSNHQKSVAKTQDPQTAGRITDSGQDTAFLHSKYEENPAWPGTSTHNGPNGFSQIMDETPNVSKSSPTGFGIKSAVTGGKEAVYSGVQSLRSHVLAMPGETTTPVQGSNRLPPSPLSSSTSHRVAASGSPGKSSTHASVSPASEPSRMMMMMSDPAEYSLCYIVNPVSPRMDDHGLKEICLDHLYRGCQQVNCNKNHFHLPYRWQLFILPTWMDFQDMEYIERAYCDPQIEIIVIEKHRINFKKMTCDSYPIRRLSTPSFVEKTLNSVFTTKWLWYWRNELNEYTQYGHESPSHTSSEINSAYLESFFHSCPRGVLQFHAGSQNYELSFQGMIQTNIASKTQRHVVRRPVFVSSKDVEQKRRGPDHQPVMPQADALTLFSSPQRNASTVSSNEYEFIELNNQDEEYAKISEQFKASMKQFKIVTIKRIWNQKLWDTFERKKQKMKNKTEMFLFHAVGRIHMDYICKNNFEWILHGNREIRYGKGNYFTKEAMYSHKSCSYDSRGTVMFVARVLVGSVIEGNMTLSSPPALYDSCVDTRLNPSVFVIFRKEQIYPEYVIEYMELEKEKGCIIS
B3: SHMT2, endogenous in N2a cells (protein, UniProt Q9CZN7 30-504)
chain: KVAQTQAGEAAGGWTGQESLSDSDPEMWELLQREKDRQCRGLELIASENFCSRAALEALGSCLNNKYSEGYPGKRYYGGAEVVDEIELLCQRRALEAFDLDPAQWGVNVQPYSGSPANLAAYTALLQPHDRIMGLDLPDGGHLTHGYMSDVKRISATSIFFESMPYKLNPQTGLIDYDQLALTARLFRPRLIIAGTSAYARLIDYARMREVCDEVRAHLLADMAHISGLVAAKVIPSPFKYADVVTTTTHKTLRGARSGLIFYRKGVRTVDPKTGKEIPYTFEDRINFAVFPSLQGGPHNHAIAAVAVALKQACTPMFREYSLQVLRNAQAMADALLKRGYSLVSGGTDTHLVLVDLRPKGLDGARAERVLELVSITANKNTCPGDRSAITPGGLRLGAPALTSRQFREDDFRRVVDFIDEGVNIGLEVKRKTAKLQDFKSFLLKDPETSQRLANLRQQVEQFARGFPMPGFDER

Target: T1, HA-HDAC6 (full-length wild-type mouse histone deacetylase 6), expressed in N2a cells (mouse) (UniProt Q9Z2V5)
T1 sequence: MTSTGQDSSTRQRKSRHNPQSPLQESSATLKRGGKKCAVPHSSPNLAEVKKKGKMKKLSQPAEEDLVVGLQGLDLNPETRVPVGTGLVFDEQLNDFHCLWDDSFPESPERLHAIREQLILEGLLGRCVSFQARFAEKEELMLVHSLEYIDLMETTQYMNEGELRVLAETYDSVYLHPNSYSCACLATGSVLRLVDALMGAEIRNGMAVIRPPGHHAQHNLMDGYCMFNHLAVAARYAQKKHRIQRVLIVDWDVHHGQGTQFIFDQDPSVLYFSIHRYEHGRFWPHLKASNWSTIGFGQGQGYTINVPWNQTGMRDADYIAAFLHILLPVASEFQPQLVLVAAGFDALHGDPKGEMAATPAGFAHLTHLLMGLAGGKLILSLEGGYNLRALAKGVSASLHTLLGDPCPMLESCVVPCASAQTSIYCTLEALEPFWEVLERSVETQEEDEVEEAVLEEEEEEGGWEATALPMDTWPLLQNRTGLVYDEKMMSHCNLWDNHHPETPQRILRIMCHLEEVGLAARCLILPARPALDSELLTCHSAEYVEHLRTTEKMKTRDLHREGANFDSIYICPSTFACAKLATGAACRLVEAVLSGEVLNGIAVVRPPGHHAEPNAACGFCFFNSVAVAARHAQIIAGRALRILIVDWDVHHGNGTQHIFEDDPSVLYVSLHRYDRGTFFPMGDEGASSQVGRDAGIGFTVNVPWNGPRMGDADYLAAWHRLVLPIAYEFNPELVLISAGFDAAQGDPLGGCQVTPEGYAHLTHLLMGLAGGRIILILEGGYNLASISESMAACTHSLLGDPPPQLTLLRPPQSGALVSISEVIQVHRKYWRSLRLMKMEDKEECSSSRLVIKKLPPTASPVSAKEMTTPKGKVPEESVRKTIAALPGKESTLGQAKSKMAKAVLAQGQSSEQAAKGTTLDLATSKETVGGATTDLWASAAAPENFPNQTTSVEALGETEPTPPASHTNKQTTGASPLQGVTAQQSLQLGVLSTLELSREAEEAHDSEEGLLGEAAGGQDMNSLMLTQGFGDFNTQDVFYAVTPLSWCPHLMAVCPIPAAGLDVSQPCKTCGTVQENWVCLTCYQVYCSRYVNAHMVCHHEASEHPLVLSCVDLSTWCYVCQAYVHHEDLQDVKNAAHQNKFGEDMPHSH
Assay: affinity purification with mass spectrometry; N2a cells transfected with HA-HDAC6 or HA-vector (15 ug, 48 h), NP-40 lysis buffer, HA-antibody immunoprecipitation, elution with 0.3% formic acid, DIA LC-MS/MS, SAINTexpress scoring; also cells in early HSV-1 infection (time-dependent interactome)

Molecule	binding
DDX3X, endogenous in N2a cells (from UniProt Q62167 1-662)	binds
IPO7, endogenous in N2a cells (from UniProt Q9EPL8 1-1038)	binds
PPID, endogenous in N2a cells (from UniProt Q9CR16 1-370)	binds
B1	binds
B2	binds
B3	binds

No constants are given. Whether binding was seen depends on the method and setting. Binding seen in cells or lysates may run through a third protein. A yes stands for co-enrichment or nearness to the bait. Other partners may have been found. Sequences can lack the tags named with a protein.
